Measurements reported in PMC10163288.
Some of the results follow.

B1: il2ra_site1_3nfp_normal_mot_HHH_b1_04931_000000291_0001_38_56_H_._HHH_b2_03644_0001_0000100002_0000001_0_af2pred_0001_af2pred (protein)
chain: SSSSSDEEDREEVERLLEEAKRIEDPREANEVLKEALKIASEAGDPELYELVAKVLKELASSSSS
B2: il2ra_site2_3nfp_normal_mot_HHH_b1_04338_af2_000000107_0001_41_56_H_._HHH_b2_06761_0001_0000100005_0000001_0 (protein)
chain: SSSDESEEIFERAEKELRRLLEEGNREEATELTFEALEELKELGDDRLVLRLYAILQRALFSSSS
B3: il2ra_site2_3nfp_normal_mot_HHH_b1_07556_000000077_0001_42_55_H_._HHH_b2_08127_0001_0000300029_0000001_0 (protein)
chain: SSSSDLEEEAKEVIKEVEELLERGDPHEAFALLAEIIFKVVQLGNEEVFRLLAQVAHEVAESSSS
B4: il2ra_site1_1z92_sap_16_mot_934a834d9b8b770824478def2ff2f329_0001_af2_000000088_0001_15_30_H_._HHH_b1_00430_af2_0001_0000200020_0000001_0_0001_af2pred_0001_af2p … (protein)
chain: DEEEAREIVEEVEEDPELRKRLIELLAEKARVPPRLAEQFLKQLLRRVKHGDPNAVLDLLDLFEL
B5: il2ra_site1_3nfp_sap_15_mot_HHH_b1_00049_af2_000000088_0001_39_52_H_._HHH_b2_00565_af2_0001_0000500027_0000001_0_0001_af2pred_0001_af2pred_1_swapped (protein)
chain: SELEKEVEELLENGNPAKALDVLLRIARERDDPEVAQLIAELARRAARGEIPPEEAVRLALELLK
B6: il2ra_site2_3nfp_normal_mot_HHH_b1_05785_af2_000000002_0001_41_57_H_._HHH_b2_01690_af2_0001_0001000024_0000001_0 (protein)
chain: SSSSDDAEEYLRAALLLLELALEEGDEELFRRHAELIRLLAESLEDEEVQERVRELEEEFDSSSS
B7: il2ra_site1_1z92_normal_mot_HHH_b2_04375_000000267_0001_42_56_H_._a7d4ab743ae57deeac5d741f7278d18b_0001_0001_0000100010_0000001_0_af2pred_0001_af2pred_1 (protein)
chain: SEEELEELAKELGVPPEEVKVVLRLLREAEELGIPPEKVLEALIRNAERNGNPKLAEVLRELLER
B8: il2ra_site2_2erj_normal_mot_af86707857d369f3e1d85dcabc5f9321_0001_000000201_0001_14_29_H_._HHH_b2_01431_af2_0001_0000100004_0000001_0 (protein)
chain: SSSSEEAEELLEQAKELLEKGNPEEALKLLRKAFLIAYRLGDHELAAELQTLAHEAVRLEASSSS
B9: il2ra_site1_3nfp_normal_mot_d3e5e791db42274430e6ef9f54efc4f5_0001_af2_000000091_0001_1_15_H_._0e682a828debfc2446b6fbf8e9701eca_0001_0001_0000100007_0000001_0_af … (protein)
chain: SKVEEAKKKLKEAILARDIKKVYELLKELTELLGDEKEAARLAIEIAREAGRPKLVRFLEHALKC
B10: il2ra_site1_1z92_sap_10_mot_ems_4hC_799_0001_000000043_0001_18_33_H_._5202e8ad13ee9de4b1286d7ece000ddb_0001_af2_0001_0000400030_0000001_0_0001_af2pred_0001_af2p … (protein)
chain: SSSSSELEEFAREVVEELVKEFNLSERQQKSLEYIARLAVELGADEEEIEKALRRFAEFLGSSSS
B11: il2ra_site1_3nfp_sap_6_mot_HHH_b1_00258_000000025_0001_42_56_H_._HHH_b2_05877_0001_0000100002_0000001_0_0001 (protein)
chain: SADEYAVRMLKKDGFPPEKIVERLVKTAERVYNIPPEEAIKWLLEWLEELGDPLAEVVKELEERK
B12: il2ra_site1_2b5i_sap_7_mot_HHH_b1_01574_000000118_0001_1_19_H_._HHH_b1_01642_0001_0000300019_0000001_0_0001_af2pred_0001_af2pred_1 (protein)
chain: SSSSSDSREVFELLREANELFRNGNPEEAKRVLEEARELAEEAGNKNLLKSIEIALRLIESSSSS
B13: il2ra_site2_2erj_sap_26_mot_6ec3e94b46d95805cdcdc10c0c108f03_0001_af2_000000040_0001_36_50_H_._HHH_b2_08137_af2_0001_0000100005_0000001_0_0001 (protein)
chain: SSSSNEELHELYELAVRLLRLVAEGDEEEFEEVFKQLEKLIEELNSDTAREVLEALRKLLHSSSS
B14: il2ra_site1_3nfp_sap_20_mot_ems_3hC_921_af2_000000143_0001_22_40_H_._HHH_b1_02666_af2_0001_0000100004_0000001_0_0001_af2pred_0001_af2pred_1 (protein)
chain: SAVEELVRRALEEGKPPEEILRRFRETAEKLGLPPEEVLRIILEVAREVGDPELEELVEKELEET
B15: il2ra_site2_2erj_normal_mot_HHH_b1_02701_000000206_0001_22_38_H_._ems_3hM_2546_0001_0000400007_0000001_0_af2pred_0001_1_af2pred_swapped (protein)
chain: SSPEEAEKLLAEISRIAYERNDEEVFSRVSELMDLLHEARRNNDEETIERIAEELEELLEKIRSS
B16: il2ra_site2_2erj_sap_19_mot_HHH_b2_05866_000000027_0001_43_57_H_._HHH_b2_00454_0001_0000300014_0000001_0_0001 (protein)
chain: SSDDRQKVLRELSRKFLEAARRNDEEALEEVVRLAEELAEEFDDPQLRAIAETLRRMLEWVRSSS
B17: il2ra_site1_1z92_sap_11_mot_96c1ddac3a320f3fb7c3d0e7ac756063_0001_000000061_0001_1_12_H_._ad75df98f761ac54d5817c2236956e28_0001_1_af2_0001_0000100003_0000001_0_ … (protein)
chain: TEYLKEQLERKVERGNPEAAVKLLVKMAESLAGGNPEEAEKAVRRLVEELGLPPEVREKVEELLK
B18: il2ra_site1_2b5i_normal_mot_fe74bfd50694bb190af954a823403fd2_0001_af2_000000294_0001_1_15_H_._HHH_b2_03631_af2_0001_0000300009_0000001_0 (protein)
chain: SSSSTEDELASEALKLLRRLLAKGNEEEAEELLKEVVKLLEEAGNETAARDLRRFFEIFGSSSSS
B19: il2ra_site1_1z92_normal_mot_54e474eed2d0515e81978198f0f96ec2_0001_000000202_0001_15_30_H_._877bfc5a5079d34557376665d7030903_0001_0001_0000100013_0000001_0_af2pr … (protein)
chain: SAERVAAIAAELDKRDPRAAKYLRLLWDLVQKHKDDISVLIRELRHLAELRQDPHLALAAELLLE

Biological target: il2ra, P01589
Experiment: yeast display titration

Apparent Kd, inactive:
B1 no binding seen
B2 no binding seen
B3 no binding seen
B4 no binding seen
B5 no binding seen
B6 no binding seen
B7 no binding seen
B8 no binding seen
B9 no binding seen
B10 no binding seen
B11 no binding seen
B12 no binding seen
B13 no binding seen
B14 no binding seen
B15 no binding seen
B16 no binding seen
B17 no binding seen
B18 no binding seen
B19 no binding seen

Random excerpt: two records from the list, in no set order.
Apparent Kd, inactive:
B13 no binding seen
B15 no binding seen
